Results deposited as PubChem BioAssay AID1259254 (NCATS, 2017)

- Aim: 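Genome-wide screen for genes that prevent DNA re-replication in cancer cells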 (primary screen)
- System: human HCT116 colorectal cancer cells
- Reagent: single siRNA against human genes
- Time to read-out: 3 days
- Measured: 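Imaged Hoechst DNA stain sorts each cell into a cycle phase by DNA amount; per plate, G2 fraction set to 0% for non-targeting and 100% for GMNN siRNA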
- Direction: G2 robust z-score and G2 cells, % of GMNN control: higher = more G2 cells, more excess DNA replication
- Call rule: 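An siRNA counts as active if its G2 robust z-score lies at least 5 MADs above the screen median; here such calls match roughly 38% of GMNN control or more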
The deposit covers about 59,000 reagents; shown is an unselected part. About 1,550 of them (2.6%) were called active. 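G2 share is only a proxy for re-replication; each gene was hit by three separate siRNAs, and active genes were retested.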 Entries without a mark were called inactive. Reagents against one gene are numbered here. Not all columns of the deposit are shown. No sequences are given here. Not stated in the record: the amount of reagent.

The opening 2 records, ahead of the listing:
{"gene symbol": "TMED5", "reagent no.": 1, "G2 robust z-score": 0.0608, "G2 cells, % of GMNN control": 3.39}
{"gene symbol": "TMED5", "reagent no.": 2, "G2 robust z-score": -0.795, "G2 cells, % of GMNN control": -2.63}

The listing, repeating the preview:
{"gene symbol": "TMED5", "reagent no.": 1, "G2 robust z-score": 0.0608, "G2 cells, % of GMNN control": 3.39}
{"gene symbol": "TMED5", "reagent no.": 2, "G2 robust z-score": -0.795, "G2 cells, % of GMNN control": -2.63}
{"gene symbol": "TMED5", "reagent no.": 3, "G2 robust z-score": -0.0564, "G2 cells, % of GMNN control": 2.57}
{"gene symbol": "LOC728061 (retired record)", "reagent no.": 1, "G2 robust z-score": -1.08, "G2 cells, % of GMNN control": -4.65}
{"gene symbol": "LOC728061 (retired record)", "reagent no.": 2, "G2 robust z-score": -0.412, "G2 cells, % of GMNN control": 0.0682}
{"gene symbol": "LOC728061 (retired record)", "reagent no.": 3, "G2 robust z-score": -0.767, "G2 cells, % of GMNN control": -2.43}
{"gene symbol": "LCE2B", "reagent no.": 1, "G2 robust z-score": -0.945, "G2 cells, % of GMNN control": -3.68}
{"gene symbol": "LCE2B", "reagent no.": 2, "G2 robust z-score": 3.43, "G2 cells, % of GMNN control": 27.1}
{"gene symbol": "LCE2B", "reagent no.": 3, "G2 robust z-score": 1.78, "G2 cells, % of GMNN control": 15.5}
{"gene symbol": "HBG1", "reagent no.": 1, "G2 robust z-score": -0.407, "G2 cells, % of GMNN control": 0.107}
{"gene symbol": "HBG1", "reagent no.": 2, "G2 robust z-score": 0.841, "G2 cells, % of GMNN control": 8.88}
{"gene symbol": "HBG1", "reagent no.": 3, "G2 robust z-score": "5.11 (active)", "G2 cells, % of GMNN control": 38.9}
{"gene symbol": "SNX33", "reagent no.": 1, "G2 robust z-score": 2.2, "G2 cells, % of GMNN control": 18.4}
{"gene symbol": "SNX33", "reagent no.": 2, "G2 robust z-score": 1.16, "G2 cells, % of GMNN control": 11.1}
{"gene symbol": "SNX33", "reagent no.": 3, "G2 robust z-score": -0.22, "G2 cells, % of GMNN control": 1.42}
{"gene symbol": "NANS", "reagent no.": 1, "G2 robust z-score": -0.397, "G2 cells, % of GMNN control": 0.175}
{"gene symbol": "NANS", "reagent no.": 2, "G2 robust z-score": 1.48, "G2 cells, % of GMNN control": 13.4}
{"gene symbol": "NANS", "reagent no.": 3, "G2 robust z-score": 1.25, "G2 cells, % of GMNN control": 11.8}
